# Experimental data reported in patent US20250064899A1, “USE OF THE 15-LIPOXYGENASE FOR THE TREATMENT OF LYMPHEDEMA” (INSERM (INSTITUT NATIONAL DE LA SANTÉ ET DE LA RECHERCHE …, priority 2022, published 2025).
# Entries after “also recorded” stand apart in the source; their conditions may differ. At least one structure is not confirmed: it was looked up by name or label, or the drawing left a doubt.
# Tests used:
# lymphedema = experiment: 15-HETE intradermal injection in mouse lymphedema; format: in vivo; settings: 300 ng intradermally in the limb at the time of surgery
# [1] = system: LEC (lymphatic endothelium); experiment: effect of 15-HETE on the cultured LEC; format: cell-based
# Source text: To decipher the role of 15-Lox lipid derived mediators, we studied the effect of 15-HETE on the cultured LEC. We identified a direct effect of 15 HETE on the lymphatic endothelium. It promoted Tcells adhesion to the lymphatic monolayer (data not shown), had no effect on LEC proliferation (data not shown), but stimulated their migration (data not shown).
structure (smiles),measurement,setting,value
"CCCCC[C@H](O)/C=C/C=C\C/C=C\C/C=C\CCCC(=O)O [15-HETE, 15-hydroxyeicosatetraenoic acid]",dermal lymph backflow,"lymphedema; lymphography, FIG. 3",inhibits dermal lymph backflow; also recorded: strong reduction
same,lymphedema development (limb diameter),"lymphedema; vs Ethanol control, FIG. 2",inhibits lymphedema; also recorded: did not develop lymphedema
same,CCL21 synthesis by lymphatic endothelial cells,[1],induces
same,LEC migration,[1]; cultured LEC,stimulated
same,Tcells adhesion to the lymphatic monolayer,[1]; cultured LEC,promoted
